Reference: paper PMC7426941

Molecular target: ABHD11 with a C-terminal HA tag (αβ-hydrolase domain-containing 11) (human)
Test: affinity purification with mass spectrometry; immunoprecipitated ABHD11-HA from HeLa lysate (anti-HA affinity gel) subjected to LC-MS/MS

B1: DLAT (dihydrolipoamide acetyltransferase) subunit of the pyruvate dehydrogenase complex (enzyme, UniProt P10515 87-647)
chain: SLPPHQKVPLPSLSPTMQAGTIARWEKKEGDKINEGDLIAEVETDKATVGFESLEECYMAKILVAEGTRDVPIGAIICITVGKPEDIEAFKNYTLDSSAAPTPQAAPAPTPAATASPPTPSAQAPGSSYPPHMQVLLPALSPTMTMGTVQRWEKKVGEKLSEGDLLAEIETDKATIGFEVQEEGYLAKILVPEGTRDVPLGTPLCIIVEKEADISAFADYRPTEVTDLKPQVPPPTPPPVAAVPPTPQPLAPTPSAPCPATPAGPKGRVFVSPLAKKLAVEKGIDLTQVKGTGPDGRITKKDIDSFVPSKVAPAPAAVVPPTGPGMAPVPTGVFTDIPISNIRRVIAQRLMQSKQTIPHYYLSIDVNMGEVLLVRKELNKILEGRSKISVNDFIIKASALACLKVPEANSSWMDTVIRQNHVVDVSVAVSTPAGLITPIVFNAHIKGVETIANDVVSLATKAREGKLQPHEFQGGTFTISNLGMFGIKNFSAIINPPQACILAIGASEDKLVPADNEKGFDVASMMSVTLSCDHRVVDGAVGAQWLAEFRKYLEKPITMLL
modifications: lipoylated (sites not given)
binding: binds

These are yes or no findings as the source states them, for the method shown. In cells and extracts the contact can be indirect. These calls come from enrichment with a bait or labelling near it, and not all partners need be listed.
